PubChem BioAssay AID504786 – Drosophila RNAi Screening Center – 2011
In all, the deposit lists about 21,000 reagents; shown is a random part of those that have a named target and a result. 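Primary screen; positive scores mean lost reporter signal, so the sign may be inverted from the usual convention.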 Names joined by + are all predicted targets of the reagent. Reagent sequences are not shown.

Assay: 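Positive regulators of HIF-driven reporter output in Drosophila cells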 (primary screen)
Cell system: Drosophila S2 cells with a stable HIF luciferase reporter
Knock-down reagent: long dsRNA against Drosophila genes, about 0.2 µg dsRNA per well of a 384-well plate
Time to read-out: three days of knock-down, then 20 h of DFO before reading
Treatment: desferrioxamine (DFO) at 100 µM, an iron chelator that mimics hypoxia, for 20 h
Read-out: 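HIF reporter luminescence in cells given 100 µM DFO for 20 h, using the mouse ldh-a hypoxia-response element, scored as per-plate z-scores; higher means greater loss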
Reading the numbers: z-score: higher = stronger loss of HIF reporter signal

What is on record for CG3281?
z-score, replicate 1: -0.2; z-score, replicate 2: -0.2

Which result is listed for tau?
z-score, replicate 1: -0.7; z-score, replicate 2: 0.1

How did the screen score scpr-A + scpr-C + scpr-B?
z-score, replicate 1: -0.2; z-score, replicate 2: 0.1

With Rab9Db + Rab9D + Rab9Fa + 1 more, what was measured?
z-score, replicate 1: -0.4; z-score, replicate 2: -0.3

For Cdc42 (Cell division cycle 42), how do the results read?
z-score, replicate 1: 2.4; z-score, replicate 2: 3.3

How did the screen score GPHR (Golgi pH Regulator)?
z-score, replicate 1: -0.2; z-score, replicate 2: -0.3

How did the screen score kz (kurz)?
z-score, replicate 1: 0.4; z-score, replicate 2: 2.2

For CG8191 + CG12379, what does the deposit list?
z-score, replicate 1: -0.3; z-score, replicate 2: -1

What did the screen give for elgi (early girl)?
z-score, replicate 1: -0.3; z-score, replicate 2: -0.3

Which result is listed for CG7582?
z-score, replicate 1: -0.2; z-score, replicate 2: -0.2

For CG43658, how do the results read?
z-score, replicate 1: -0.3; z-score, replicate 2: 0.3

How did the screen score Gnpat (Glyceronephosphate O-acyltransferase)?
z-score, replicate 1: 0.2; z-score, replicate 2: 1.9

With CG12589, how do the results read?
z-score, replicate 1: 0; z-score, replicate 2: 0.1

For tio (tiptop), how do the results read?
z-score, replicate 1: -0.3; z-score, replicate 2: -0.4

With wfs1 (wolfram syndrome 1), what was measured?
z-score, replicate 1: 0; z-score, replicate 2: -0.1

Which result is listed for Tob (Transducer of ERBB2)?
z-score, replicate 1: -0.4; z-score, replicate 2: 0

Copied from above for reference:
tio (tiptop) → z-score, replicate 1: -0.3; z-score, replicate 2: -0.4
wfs1 (wolfram syndrome 1) → z-score, replicate 1: 0; z-score, replicate 2: -0.1
